## Library compounds against nucleic acid targets

Data from the ROBIN nucleic acid binder screens, doi:10.1002/anie.202211358.

Targets (5′ to 3′):
PreQ1: PreQ1 riboswitch RNA pseudoknot, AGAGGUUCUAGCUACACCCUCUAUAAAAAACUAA. From B. subtilis. Hit rate about 0.7% of about 24,000 compounds.
SAM-II: SAM-II riboswitch RNA pseudoknot, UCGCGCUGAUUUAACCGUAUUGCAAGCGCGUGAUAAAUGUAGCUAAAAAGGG. Hit rate about 1% of about 21,000 compounds.
TPP: TPP riboswitch RNA three-way junction, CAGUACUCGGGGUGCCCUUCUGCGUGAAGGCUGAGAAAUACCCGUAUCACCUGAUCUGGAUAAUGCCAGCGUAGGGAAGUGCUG. Hit rate about 0.7% of about 24,000 compounds.

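Each compound is printed as two spots on a slide made to bind it covalently, so it has no test concentration; the read-out is fluorescence of the bound, labelled oligonucleotide. For the PreQ1, TPP and SAM-II riboswitches the laboratory earlier reported (doi:10.1038/s41467-019-09493-3) 1 µM RNA, 2 h, and a rule that included a mean Z-score above 3 (spot signal-to-noise against the whole library), a score well above that on a control array, and duplicate spots agreeing (coefficient of variation under 100). The data file gives only the calls; its cut-offs may differ, and compounds hitting several targets are kept. The calls come from the array alone, and fixing a compound to the slide can hide its binding.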
“active” means called a hit, “inactive” means screened and not called a hit.
The compounds are a random part of those screened.
A target missing from an entry has no call listed here.
A dash means that no call is listed here.

- Clc1cccc(Nc2nc3nonc3nc2N2CCCCC2)c1 | PreQ1: inactive; SAM-II: inactive; TPP: inactive
- COc1ccc([C@H]2CN(C(=O)CCc3ccsc3)C[C@@H]2N)cc1 | PreQ1: inactive; SAM-II: inactive; TPP: inactive
- CCC(O)c1nc2ccccc2n1Cc1cccc(Cl)c1 (centres undefined) | PreQ1: inactive; TPP: inactive
- CN1CCC(c2c[nH]c3ccccc23)C1 (centres undefined) | PreQ1: inactive; SAM-II: inactive; TPP: inactive
- O=c1ccn([C@@H]2O[C@H](CO)[C@H](O)[C@H]2O)c(=O)[nH]1 | PreQ1: inactive; SAM-II: inactive; TPP: inactive
- COCc1nn2c(N)c(C#N)nnc2c1-c1ccc(F)cc1 | PreQ1: inactive; TPP: inactive
- CCN(CC)C(=O)c1cc(N)c(OC)c(OC)c1 | PreQ1: inactive; SAM-II: inactive; TPP: inactive
- CN(CC1(CO)CCOCC1)C(=O)c1cnc2cc(Cl)ccc2c1O | PreQ1: inactive; SAM-II: inactive; TPP: inactive
- CCOC(=O)c1cnc2ccc(Cl)cc2c1N | PreQ1: inactive; SAM-II: inactive; TPP: inactive
- O=C(CCN1CC[C@H]2CNC[C@H]21)NCc1ccccc1Cl | PreQ1: inactive; SAM-II: inactive; TPP: inactive
- NC(=O)[C@H](CO)Nc1nc(N)nc2c1CCCC2 | PreQ1: inactive; SAM-II: inactive; TPP: inactive
- O=C(O)CN1CCC2(CC1)CCN(c1ccncc1)CC2CO (centres undefined) | PreQ1: inactive; SAM-II: inactive; TPP: inactive
- COc1ccccc1NC(=O)c1c(N)sc2c1CCC(C)C2 (centres undefined) | PreQ1: inactive; SAM-II: inactive; TPP: inactive
- N#CSc1ccc(N)c(Cl)c1Cl | PreQ1: inactive; SAM-II: inactive; TPP: inactive
- COc1ccc(CNc2nc3nc(C)cc(C)n3n2)cc1OC | PreQ1: inactive; TPP: inactive
- CCc1ccc(OCCCn2c(C(C)O)nc3ccccc32)cc1 (centres undefined) | PreQ1: inactive; SAM-II: inactive; TPP: inactive
- CCc1ccccc1NC1c2ccccc2C(=O)N1c1ccc(Cl)cn1 (centres undefined) | PreQ1: inactive; SAM-II: inactive; TPP: inactive
- CCC(CC)C(=O)N1c2ccccc2C(Nc2ccccc2)CC1C (centres undefined) | PreQ1: inactive; SAM-II: inactive; TPP: inactive
- O=C(O)COc1ccc(CO)cc1Cl | PreQ1: inactive; SAM-II: inactive; TPP: inactive
- O[C@H]1CN(c2nccc(CCC(F)(F)F)n2)C[C@@H]1N1CCOCC1 | PreQ1: inactive; SAM-II: inactive; TPP: inactive
- CS(=O)(=O)Nc1ccc([N+](=O)[O-])cc1Oc1ccccc1 | PreQ1: inactive; SAM-II: inactive; TPP: inactive
- COc1ccc(CNCCc2cccc(Cl)c2)cc1OC | PreQ1: inactive; SAM-II: inactive; TPP: inactive
- CCOC(=O)CN1C(=O)C(O)(CC(=O)c2ccc(N)cc2)c2ccccc21 (centres undefined) | PreQ1: inactive; SAM-II: inactive; TPP: inactive

Some entries from above, unchanged:

compound	PreQ1	SAM-II	TPP
CN1CCC(c2c[nH]c3ccccc23)C1 (centres undefined)	inactive	inactive	inactive
COCc1nn2c(N)c(C#N)nnc2c1-c1ccc(F)cc1	inactive	-	inactive
COc1ccc(CNc2nc3nc(C)cc(C)n3n2)cc1OC	inactive	-	inactive